The values below come from publication PMC12664034, “The E3 ubiquitin ligase SPRYD3-MYCBP2(PAM) regulates mitotic cell fate and ubiquitination of USP11 to control spindle assembly” (The Journal of Biological Chemistry, 2025).

Results are given in words; binding and its absence hold for the method and conditions named. In cells and extracts the contact can be indirect. Binding can be weak; no strength is given. Where a sequence is shown, tags or fusion partners need not be part of it.

For one test, the target named is T1, Flag-SPRYD3 (UniProt Q8NCJ5).
T1 sequence: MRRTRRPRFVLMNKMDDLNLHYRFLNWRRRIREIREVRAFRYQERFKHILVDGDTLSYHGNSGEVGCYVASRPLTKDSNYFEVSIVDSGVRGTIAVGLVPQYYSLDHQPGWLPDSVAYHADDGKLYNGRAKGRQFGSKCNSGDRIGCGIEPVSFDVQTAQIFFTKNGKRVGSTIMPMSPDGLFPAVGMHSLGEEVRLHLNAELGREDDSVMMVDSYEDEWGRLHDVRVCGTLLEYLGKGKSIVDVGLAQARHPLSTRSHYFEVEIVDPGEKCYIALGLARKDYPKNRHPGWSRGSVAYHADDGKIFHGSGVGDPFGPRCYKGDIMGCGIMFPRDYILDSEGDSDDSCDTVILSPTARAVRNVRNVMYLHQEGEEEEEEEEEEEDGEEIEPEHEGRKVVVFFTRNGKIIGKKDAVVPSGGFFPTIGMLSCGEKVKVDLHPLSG
The experiment in a line: co-IP; co-transfected HEK293T WT (also ΔFBXO45) cells, 24 h or 48 h; NP-40 buffer lysate; Flag-M2 beads at 4 °C overnight; elution with 3x Flag peptide; Western blot. For orientation: In western blotting, separated proteins are transferred to a membrane and probed.

A further test concerns the target Flag-MYCBP2. The test is described as above.

Regarding MYC-MYCBP2, in the test with Flag-SPRYD3, the binding entry is listed as “binds”.

B1: MYC-SPRYD3 (protein, UniProt Q8NCJ5 1-442)
chain: MRRTRRPRFVLMNKMDDLNLHYRFLNWRRRIREIREVRAFRYQERFKHILVDGDTLSYHGNSGEVGCYVASRPLTKDSNYFEVSIVDSGVRGTIAVGLVPQYYSLDHQPGWLPDSVAYHADDGKLYNGRAKGRQFGSKCNSGDRIGCGIEPVSFDVQTAQIFFTKNGKRVGSTIMPMSPDGLFPAVGMHSLGEEVRLHLNAELGREDDSVMMVDSYEDEWGRLHDVRVCGTLLEYLGKGKSIVDVGLAQARHPLSTRSHYFEVEIVDPGEKCYIALGLARKDYPKNRHPGWSRGSVAYHADDGKIFHGSGVGDPFGPRCYKGDIMGCGIMFPRDYILDSEGDSDDSCDTVILSPTARAVRNVRNVMYLHQEGEEEEEEEEEEEDGEEIEPEHEGRKVVVFFTRNGKIIGKKDAVVPSGGFFPTIGMLSCGEKVKVDLHPLSG
As for B1, in the test with Flag-MYCBP2, the binding entry is listed as “binds”.
